Plain letter strings leave the end groups untold. Some peptides are written in HELM: one residue between dots, names in brackets for other building blocks, links after the first $.
How the values were obtained:
[1] = general procedure: Fmoc solid-phase peptide synthesis; Fmoc-PAL AM resin (Novabiochem) pre-loaded with GSGSDYKDDDDK-NH2; DIC / Oxyma / collidine; conditions: whole synthesis, analytical HPLC/UPLC
[2] = peptide made by a vendor (Fmoc solid-phase peptide synthesis; Fmoc-PAL AM resin (Novabiochem) pre-loaded with GSGSDYKDDDDK-NH2; DIC / Oxyma / collidine); conditions: whole synthesis, analytical HPLC/UPLC
[3] = one disulfide bridge, sequence written open

Substance | crude HPLC purity [1] | final HPLC purity [2] | crude HPLC purity [1, 3] | final HPLC purity [2, 3]
PEPTIDE1{[ac].M.C.Y.L.D.D.F.Y.S.Y.R.Y.W.A.C.G.S.G.S.D.Y.K.D.D.D.D.K.[am]}$PEPTIDE1,PEPTIDE1,3:R3-16:R3$$$V2.0 | 23.91% | 88.29% |  | 
PEPTIDE1{[ac].M.C.N.V.L.L.Y.K.V.L.R.H.C.G.S.G.S.D.Y.K.D.D.D.D.K.[am]}$PEPTIDE1,PEPTIDE1,3:R3-14:R3$$$V2.0 | 78.00% | 86.88% |  | 
PEPTIDE1{[ac].M.C.Y.H.R.P.P.N.S.K.I.W.R.K.C.G.S.G.S.D.Y.K.D.D.D.D.K.[am]}$PEPTIDE1,PEPTIDE1,3:R3-16:R3$$$V2.0 | 71.65% | 88.36% |  | 
PEPTIDE1{[ac].M.C.E.R.E.V.L.Y.W.L.L.V.T.C.G.S.G.S.D.Y.K.D.D.D.D.K.[am]}$PEPTIDE1,PEPTIDE1,3:R3-15:R3$$$V2.0 | 54.53% | 85.07% |  | 
MCKHLYYYLLWKKC |  |  | 47.42% | 88.75%
PEPTIDE1{[ac].M.C.Y.T.R.F.Y.N.W.E.K.W.Q.L.C.G.S.G.S.D.Y.K.D.D.D.D.K.[am]}$PEPTIDE1,PEPTIDE1,3:R3-16:R3$$$V2.0 | 62.39% | 87.56% |  | 
PEPTIDE1{[ac].M.C.E.S.D.A.Y.R.W.K.L.W.W.V.C.G.S.G.S.D.Y.K.D.D.D.D.K.[am]}$PEPTIDE1,PEPTIDE1,3:R3-16:R3$$$V2.0 | 59.42% | 86.50% |  | 
PEPTIDE1{[ac].M.C.N.V.L.L.Y.K.D.L.R.H.C.G.S.G.S.D.Y.K.D.D.D.D.K.[am]}$PEPTIDE1,PEPTIDE1,3:R3-14:R3$$$V2.0 | 65.14% | 86.47% |  | 

— article PMC10763615 (RSC Chemical Biology, 2023)
